US20140336126A1
Results are given in words; binding and its absence hold for the method and conditions named. Binding seen in cells or lysates may run through a third protein. Some binding calls cover weakened binding; strength is not graded here.

Chains of the proteins cited; added tags and fusions are not shown. Lines headed by an entry give the natural chain unless they say otherwise; changes in a name come on top.
UniProt O14974: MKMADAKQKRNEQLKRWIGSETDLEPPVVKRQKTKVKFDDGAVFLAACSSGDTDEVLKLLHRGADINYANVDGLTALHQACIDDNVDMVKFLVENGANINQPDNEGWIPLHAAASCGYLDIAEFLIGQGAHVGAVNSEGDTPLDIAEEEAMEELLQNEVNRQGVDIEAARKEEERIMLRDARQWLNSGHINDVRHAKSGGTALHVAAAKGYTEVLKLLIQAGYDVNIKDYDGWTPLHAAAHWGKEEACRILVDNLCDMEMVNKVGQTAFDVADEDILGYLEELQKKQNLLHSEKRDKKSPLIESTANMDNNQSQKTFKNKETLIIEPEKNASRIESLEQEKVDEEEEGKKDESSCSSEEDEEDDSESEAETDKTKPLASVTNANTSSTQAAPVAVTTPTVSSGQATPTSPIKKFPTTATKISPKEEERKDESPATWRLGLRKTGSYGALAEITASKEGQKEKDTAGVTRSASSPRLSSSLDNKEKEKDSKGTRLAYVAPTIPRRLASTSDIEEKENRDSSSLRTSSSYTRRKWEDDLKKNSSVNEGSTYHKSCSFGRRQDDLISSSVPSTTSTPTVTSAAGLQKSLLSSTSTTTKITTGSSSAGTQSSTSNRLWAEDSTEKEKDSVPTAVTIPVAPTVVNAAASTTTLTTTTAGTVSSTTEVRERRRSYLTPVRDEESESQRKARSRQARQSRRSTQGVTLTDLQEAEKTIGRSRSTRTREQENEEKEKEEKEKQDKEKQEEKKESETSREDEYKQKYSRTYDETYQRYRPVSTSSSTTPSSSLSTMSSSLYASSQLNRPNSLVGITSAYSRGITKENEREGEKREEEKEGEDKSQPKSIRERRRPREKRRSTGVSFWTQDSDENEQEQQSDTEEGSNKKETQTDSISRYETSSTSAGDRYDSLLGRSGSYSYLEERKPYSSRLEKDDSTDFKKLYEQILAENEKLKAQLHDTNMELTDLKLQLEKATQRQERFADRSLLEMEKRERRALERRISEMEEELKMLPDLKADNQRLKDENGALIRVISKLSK

What was measured:
[1] = biological target: myosin phosphatase targeting subunit 1 (MYPT1) (Homo sapiens (Human)) (UniProt O14974); assay: anti-GFP co-immunoprecipitation of GFP-Optn fragments with HA-MYPT1, HeLa cells (FIG. 4E)
[2] = biological target: myosin phosphatase targeting subunit 1 (MYPT1) (Homo sapiens (Human)) (UniProt O14974); assay: anti-GFP co-immunoprecipitation of GFP-tagged Optn fragments with HA-MYPT1, HeLa cells (FIG. 4E)

binding [1]: binds
binding [2]: binds
Substance: GFP-Optn 131-170 (from UniProt Q5R923 131-170)
